# Results: PubChem BioAssay AID504834 (National Center for Advancing Translational Sciences (NCATS), 2011)
# Among all 320,000 compounds or so, about 22,000 (6.9%) were called active. The shares of active, inactive and inconclusive entries below differ from those in the screen. The call rests on the fitted dose curve; in most records, active means well fitted inhibition curve with a large enough effect; inconclusive means small, poorly fitted or top-dose-only effect, or another doubt; inactive means no such curve, though single readings can be large or run the other way. Where the call is inconclusive, the potency comes from a doubtful curve fit.
# Experiment: Primary qHTS for delayed death inhibitors of the malarial parasite plastid, 96 hour incubation
# Conditions: P. falciparum luciferase reporter growth; series mostly up to 28.7 µM; activity change, negative = inhibition: at the top concentration
# How it was run: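 Luminescence readout: decreased luciferase signal marks inhibited growth of reporter-expressing P. falciparum in infected red cells (2% hematocrit, 0.05% parasitemia final), exposed to compound two generations (96 h, 37 C, 5% CO2).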
# On the % scale 0 is the no-effect control and ±100 the full control effect; potency means the concentration at half of the fitted maximal effect.
SMILES,Potency,"activity change, negative = inhibition"
CCCC(=O)Nc1ccc(C(=O)NCc2ccccc2Cl)cc1,"inconclusive: 0.0657 µM [inhibitor, full curve, poor fit]",
CCC(=O)Nc1nnc(CCc2ccccc2)s1,,inactive: -17.2%
Cc1nn(C)c(C)c1CN(C(=O)C1CCC(=O)N(C2CCCCCC2)C1)C(C)C (configuration not stated),active: 11.7 µM,
CCC1(c2ccccc2)NC(=O)N(CC(=O)NCc2ccc(OC)cc2)C1=O (configuration not stated),"inconclusive: 11.7 µM [inhibitor, single point]",
C=C(C)CSC1=C(C#N)C(c2ccccc2Cl)CC(=O)N1 (configuration not stated),"inconclusive: 10.4 µM [inhibitor, single point]",
COCCN1CCN(C(=O)C2CCC(=O)N(Cc3cccc(C(F)(F)F)c3)C2)CC1 (configuration not stated),,inactive: 53.2%
COc1ccc(NC2CCCN(C(=O)c3cccs3)C2)cc1 (configuration not stated),"inconclusive: 18.5 µM [inhibitor, single point]",
CC(=O)Nc1sc2c(c1CN1CCCC1)CCCC2,"inconclusive: 11.7 µM [inhibitor, single point]",
O=C(COC(=O)CCc1nc2ccccc2c(=O)[nH]1)NC1CCS(=O)(=O)C1 (configuration not stated),,inactive: 34.4%
Cc1ccc(Nc2nc(N)nc(CN3CCc4ccccc4C3)n2)cc1,,inactive: -1.89%
Cc1ccc(C)c(N2CN(CCC3=CCCCC3)CNC2=S)c1,"inconclusive: 18.5 µM [inhibitor, single point]",
COc1ccc2c(c1OC)C(=O)OC2C1c2c(cc3c(c2OC)OCO3)CCN1C (configuration not stated),active: 13.1 µM,
COc1cc(-c2[nH]ncc2CN2CCN(c3cccc(C)n3)CC2)cc(OC)c1OC,active: 4.15 µM,
Cc1ccc(/C=N/c2sc3c(c2C(N)=O)CCCC3)o1,"inconclusive: 10.4 µM [inhibitor, single point]",
CCOc1cc(C2Nc3cccc4cccc(c34)N2)ccc1O,,inactive: -27.3%
COC(=O)c1ccc(CSc2nc3c(cnn3-c3ccc(Cl)cc3)c(=O)[nH]2)o1,active: 6.57 µM,
CC(=O)Nc1ccc(NC(=O)[C@@H](NC(=O)N2C[C@H]3C[C@@H](C2)c2cccc(=O)n2C3)C(C)C)cc1,,inactive: 65.6%
Cc1ccc(S(=O)(=O)N[C@H](C(=O)OCC(=O)NC(=O)Nc2ccc3c(c2)OCCO3)C(C)C)cc1,,inactive: 37.5%
C1CCCCCC(NCCN2CCNCC2)CCCCC1,"inconclusive: 10.4 µM [inhibitor, partial curve]",
Cc1c(-n2cc(C(=O)c3cc(F)ccc3O)cc(C#N)c2=O)c(=O)n(-c2ccccc2)n1C,"inconclusive: 18.5 µM [inhibitor, single point]",
CN(C)c1ccc(P(=O)(Nc2ccccc2)N2CCOCC2)c(NC(=O)c2cccs2)c1 (configuration not stated),"inconclusive: 18.5 µM [inhibitor, single point]",

SMILES,Potency,"activity change, negative = inhibition"
Nc1ncnc(NCc2ccc(F)cc2)c1[N+](=O)[O-],,inactive: 59.3%
CC(=O)O[C@H]1CC[C@@]2(C)C(=CC[C@H]3[C@@H]4CC[C@H](C5(C)OCCO5)[C@@]4(C)CC[C@@H]32)C1,"inconclusive: 18.5 µM [inhibitor, single point]",
O=C(N/N=C/c1ccccn1)c1sc2ccccc2c1Cl,"inconclusive: 10.4 µM [inhibitor, partial curve, poor fit]",
C=CCn1c(SCC(=O)NC(=O)NC2CCCC2)nnc1C1CCCCC1,"inconclusive: 18.5 µM [inhibitor, single point]",
CC(CCN1C(Nc2ccccc2)=NC[C@@H]1Cc1ccccc1)c1ccccc1 (some centres not stated),"inconclusive: 11.7 µM [inhibitor, partial curve, poor fit]",
CCc1ccc(CN(C(=O)c2oc3ccccc3c2C)C2CCS(=O)(=O)C2)cc1 (configuration not stated),"inconclusive: 1.65 µM [inhibitor, partial curve, poor fit]",
O=S(=O)(c1ccc2c(c1)OCCO2)N1CCCN(S(=O)(=O)c2c(F)cccc2F)CC1,"inconclusive: 3.7 µM [inhibitor, single point]",
O=C(NC(=S)NNC(=O)c1ccccc1[N+](=O)[O-])c1ccc(Br)cc1,"inconclusive: 9.28 µM [inhibitor, partial curve]",
O=c1c2ccccc2nc(/C=C/c2ccccc2O)n1-c1ccccc1O,"inconclusive: 6.57 µM [inhibitor, partial curve, poor fit]",
CC(Oc1cccc(Cl)c1)C(=O)Nc1cc(Cl)ccc1N1CCOCC1 (configuration not stated),"inconclusive: 1.65 µM [inhibitor, partial curve, poor fit]",
COC(=O)c1c(NC(=O)CN2CCCc3ccccc32)sc(C)c1C,"inconclusive: 10.4 µM [inhibitor, partial curve, poor fit]",
O=C(N/N=C/C=C/c1ccccc1[N+](=O)[O-])c1cc(-c2ccccc2)n[nH]1,"inconclusive: 4.15 µM [inhibitor, single point]",
CCC(=O)Oc1ccc(/C(CC)=C(\CC)c2ccc(OC(=O)CC)cc2)cc1,"inconclusive: 0.928 µM [inhibitor, full curve, poor fit]",
Cc1ccc(NC(=O)c2cccnc2)cc1S(=O)(=O)N1CCOCC1,"inconclusive: 18.5 µM [inhibitor, single point]",
c1ccc(-c2ncc(CSc3nncn3-c3ccccc3)s2)cc1,"inconclusive: 18.5 µM [inhibitor, single point]",
CCCCOC(=O)C1=C(C)Nc2nnnn2C1c1ccccc1Cl (configuration not stated),"inconclusive: 11.7 µM [inhibitor, partial curve, poor fit]",
COc1ccc(CCN2CCCn3c2nc2c3c(=O)n(CC(C)C)c(=O)n2C)cc1OC,"inconclusive: 2.33 µM [inhibitor, full curve, poor fit]",
COCCN(C(=O)CCC(=O)Nc1nccs1)C(C(=O)NC(C)(C)C)c1ccc(F)cc1 (configuration not stated),"inconclusive: 0.0185 µM [inhibitor, full curve, poor fit]",
Cc1ccc(C(C(=O)NC2CCCCC2)N(C(=O)Cc2c[nH]c3ccccc23)c2ccccc2)o1 (configuration not stated),"inconclusive: 16.5 µM [inhibitor, single point]",
C=CCNc1nc(C(=O)OCC)nc2ccccc12,,inactive: 38%
CCC(=NCc1ccc2c(c1)OCO2)c1c(O)n(C2CCCCC2)c(=O)[nH]c1=O,"inconclusive: 18.5 µM [inhibitor, single point]",

# Two of the compounds above, as tab-separated lines.
SMILES	Potency	activity change, negative = inhibition
CC(Oc1cccc(Cl)c1)C(=O)Nc1cc(Cl)ccc1N1CCOCC1 (configuration not stated)	inconclusive: 1.65 µM [inhibitor, partial curve, poor fit]	
c1ccc(-c2ncc(CSc3nncn3-c3ccccc3)s2)cc1	inconclusive: 18.5 µM [inhibitor, single point]	
